Record: PubChem BioAssay AID493246 (Drosophila RNAi Screening Center, 2011)
The screen tested about 21,000 reagents; this is an unselected part of those with a known target gene and a result. Of all reagents, 429 (2%) got an active call. 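Values are raw and not normalised between plates; calls rest on per-plate z-scores that were not deposited.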 Unmarked entries are inactive. The numbers tell different reagents against one gene apart. Not stated in the record: the amount of reagent, the time to read-out.

- Aim: 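Genes fly cells need to grow and stay alive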 (primary screen)
- Cell system: Drosophila Kc and S2R+ cells
- Reagent: long dsRNA against Drosophila genes
- Measurement: 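Cell number per well after knock-down, printed as raw plate values; calls were based on per-plate z-scores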
- Reading the numbers: Kc cell number and S2R+ cell number: higher = more cells remaining
- Active means: 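Counted as a hit if cell number falls by a z-score of at least 3 within its plate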

no.	target	reagent	Kc cell number, rep 1	Kc cell number, rep 2	S2R+ cell number, rep 1	S2R+ cell number, rep 2
1	Gk1	1	1.35e6	1.42e6	1.24e6	1.27e6
2	Gk1	2	1.46e6	1.31e6	1.01e6	1.25e6
3	CG10343	1	1.64e6	1.70e6	1.28e6	2.72e5
4	RhoGAP16F	1	1.41e6	1.45e6	1.02e6	1.20e6
5	CG12865 (retired record)	1	1.64e6	1.67e6	1.36e6	1.46e6
6	galene	1	1.54e6	1.17e6	1.00e6	1.24e6
7	galene	2	1.27e6	1.22e6	9.92e5	1.19e6
8	spartin	1	1.61e6	1.66e6	1.48e6	1.54e6
9	Snx21	1	1.33e6	1.46e6	1.14e6	1.04e6
10	snama	1	1.26e6	1.36e6	1.10e6	1.13e6
11	CG31686 (retired record)	1	1.68e6	1.68e6	9.94e5	1.14e6

3 consecutive reagents from above, quoted:
no.	target	reagent	Kc cell number, rep 1	Kc cell number, rep 2	S2R+ cell number, rep 1	S2R+ cell number, rep 2
9	Snx21	1	1.33e6	1.46e6	1.14e6	1.04e6
10	snama	1	1.26e6	1.36e6	1.10e6	1.13e6
11	CG31686 (retired record)	1	1.68e6	1.68e6	9.94e5	1.14e6

The listing continues:
no.	target	reagent	Kc cell number, rep 1	Kc cell number, rep 2	S2R+ cell number, rep 1	S2R+ cell number, rep 2
12	Sara	1	1.42e6	1.50e6	1.22e6	3.30e5
13	Fmo-2	1	1.27e6	1.34e6	1.14e6	1.18e6
14	Cpr72Ec	1	1.55e6	1.62e6	1.36e6	1.42e6
15	Wnt10	1	1.54e6	1.59e6	9.82e5	1.16e6
16	Wnt10	2	1.78e6	1.87e6	1.18e6	1.29e6
17	ssp5	1	1.51e6	1.54e6	1.27e6	1.30e6
18	Lsd-1	1	1.42e6	1.52e6	1.19e6	1.29e6
19	NC2beta	1	1.45e6	1.47e6	1.18e6	1.24e6
20	Grd	1	1.17e6	1.39e6	1.25e6	1.35e6
21	Chd64	1	1.27e6	1.39e6	1.14e6	1.12e6
22	Ntan1	1	1.68e6	1.65e6	1.26e6	1.43e6
23	CG18585	1	1.35e6	1.40e6	6.02e5	1.02e6
24	kra	1	1.44e6	1.62e6	1.16e6	1.29e6
